Article PMC7819943, “Rice protein-binding microarrays: a tool to detect cis-acting elements near promoter regions in rice”
The other results are listed elsewhere or left out.

By UniProt entry, the sequences of proteins in these tests, tags left out.
UniProt Q0JBA9, entry or part of it: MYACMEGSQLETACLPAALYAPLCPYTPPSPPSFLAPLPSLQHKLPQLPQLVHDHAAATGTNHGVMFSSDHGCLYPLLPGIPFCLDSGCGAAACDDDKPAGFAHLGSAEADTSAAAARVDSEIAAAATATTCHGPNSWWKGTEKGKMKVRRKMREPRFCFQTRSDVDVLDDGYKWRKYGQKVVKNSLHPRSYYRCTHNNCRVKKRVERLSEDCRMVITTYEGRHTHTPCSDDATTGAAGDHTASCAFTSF

molecular target: OsWRKY34 (Oryza sativa, UniProt Q0JBA9 1-250); test: protein-binding microarray (RPBM); PBS, 2% BSA, 51.3 ng/ul salmon testes DNA, 50 uM zinc acetate, 200 nM TF, 25 C, 1 h; high values mean tight binding; details: protein: recombinant; tags: N-terminal polyhistidine and DsRed monomer fusion (pET32a); label: CyDye5-dUTP incorporated in the synthesized complementary strand; 3' TTTTT single-stranded linker to array surface; dsDNA, one strand shown
How it was run: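 Using Ni–NTA, transcription factors fused N-terminally to polyhistidine and DsRed were purified after expression in E. coli BL21-CodonPlus. These were incubated at 200 nM with a blocked, double-stranded custom Agilent array for 1 h at 25 °C in a buffer containing 50 µM zinc acetate, and the array was washed. The binding signal is per-feature fluorescence intensity (arbitrary units) on an Axon 4000B scanner.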

Row | Sequence | binding signal
1 | TCCCTCCCTTGCTTGGTTGGTTGTACATGCTGCGAATCGACGGAGTCACCTAGTGCAG | 9210 fluorescence intensity (a.u.)
2 | GAGTTATACCCAGTTTTCTCCCGGGAGAGATTGTCCCCAGCGGAGTCACCTAGTGCAG | 8160 fluorescence intensity (a.u.)
3 | GAGCTTTTATTTCGAGGGAATGGGCAGGGAGCTCCTGCAACGGAGTCACCTAGTGCAG | 9690 fluorescence intensity (a.u.)
4 | TTGGCGCCTCCATCAACCGTCCACGTCGTCTTCGGCCTCACGGAGTCACCTAGTGCAG | 8220 fluorescence intensity (a.u.)
5 | CTATCTGATCACCCGTTGCCATCTCCGTCGCTTCAACCACCGGAGTCACCTAGTGCAG | 15200 fluorescence intensity (a.u.)
6 | CACGCCACCGCCGATCCCCATCGACCACGACCACGCCGCCCGGAGTCACCTAGTGCAG | 8460 fluorescence intensity (a.u.)
7 | GTACGTTTCATTCAACTCCTTTCACTATTGGGTGTTTTTGCGGAGTCACCTAGTGCAG | 10800 fluorescence intensity (a.u.)
8 | AGCATCTTTTTCTAGGACAGCATCTCTACTTTCAGTTTGACGGAGTCACCTAGTGCAG | 11800 fluorescence intensity (a.u.)
9 | TACTATTGGTGCATATTTAGTTCCAAGGCGTCGTTTTAGTCGGAGTCACCTAGTGCAG | 8210 fluorescence intensity (a.u.)
10 | TCACAACATAAGTCATTTGTAACATTTTCCACATTTATATCGGAGTCACCTAGTGCAG | 8270 fluorescence intensity (a.u.)
11 | GGAGGGCGGGACGTTACATTGGGCTGCTGTTCTTAGGATCCGGAGTCACCTAGTGCAG | 13100 fluorescence intensity (a.u.)
12 | TAGCTCAACTCTCAGGTCATCGTCGGCGACCCACACAGGCCGGAGTCACCTAGTGCAG | 8020 fluorescence intensity (a.u.)
13 | GGCCCAAATAGTTCTTGTGGTACAGATCGATGCGACACTCCGGAGTCACCTAGTGCAG | 8590 fluorescence intensity (a.u.)
14 | TTACTTCCATCGCAACGACATTGCTTGCTACGTCACATGCCGGAGTCACCTAGTGCAG | 8290 fluorescence intensity (a.u.)
15 | CCGCGACCCCAACCACCACCATCCATCCATACACCCGGAGCGGAGTCACCTAGTGCAG | 9150 fluorescence intensity (a.u.)
16 | ATGTGTTAATAGTTTTCTCATTTTCCTTTGAGCCAACCTTCGGAGTCACCTAGTGCAG | 8980 fluorescence intensity (a.u.)
17 | AGCCATTTTGACCCGTGATGTGACAGCAAACATTTGACGCCGGAGTCACCTAGTGCAG | 9070 fluorescence intensity (a.u.)
18 | GCGCTCAACTTTGATCATCTGTCTTATTTGAAATTTTTTTCGGAGTCACCTAGTGCAG | 8590 fluorescence intensity (a.u.)
19 | TTGCTTACACACGTCGTAACAGTTCAGCTAGATGCTTGTCCGGAGTCACCTAGTGCAG | 8140 fluorescence intensity (a.u.)
20 | CCTGATCTTTCTACCTAGGACCCGTTTTTCTTCTCAGATTCGGAGTCACCTAGTGCAG | 8990 fluorescence intensity (a.u.)
21 | GGTGTGTTGCTTCCATGTTCCAACACGTATAGCCTTTTCGCGGAGTCACCTAGTGCAG | 9930 fluorescence intensity (a.u.)
22 | CCACCGACTTCTTCGTCTTCCTCGTTGGTCTCCTCTCTCTCGGAGTCACCTAGTGCAG | 13900 fluorescence intensity (a.u.)
23 | GCCTGCCCCATCTGCGCCGCCGAGCTCGCCGTCGACACCGCGGAGTCACCTAGTGCAG | 9760 fluorescence intensity (a.u.)
24 | CACAAGCAGCGCAACAAGCGTTCTTTTGCATCGCCCTTGACGGAGTCACCTAGTGCAG | 8330 fluorescence intensity (a.u.)
25 | CTCTGACCATATATCACGTTCTACGTCCAGGTCAAATCACCGGAGTCACCTAGTGCAG | 8730 fluorescence intensity (a.u.)
26 | GGATGTTTCTGTCTTGACTTAACTTGATTGCGACCTGTCACGGAGTCACCTAGTGCAG | 11000 fluorescence intensity (a.u.)
27 | TCCTCTTCCTCGTCCTCGTTCTCCTCTCCACCTCAGCTCCCGGAGTCACCTAGTGCAG | 8030 fluorescence intensity (a.u.)

Row | Sequence | binding signal
28 | GCTCTTAGATGTGTTTCATTAGCTATTGTTGCCCGCTGTCCGGAGTCACCTAGTGCAG | 9480 fluorescence intensity (a.u.)
29 | TCGATATCTCGATTGATGGTTTGATGTTTGTTTAATTCTGCGGAGTCACCTAGTGCAG | 8490 fluorescence intensity (a.u.)
30 | AATGGTGTCAGATCAAGTGAATTTAGGATTGCTGTAACAACGGAGTCACCTAGTGCAG | 8900 fluorescence intensity (a.u.)
31 | TACTGAACTTCGAATTTTTTCCACATACTCCTCATAGATTCGGAGTCACCTAGTGCAG | 8770 fluorescence intensity (a.u.)
32 | GGGACATCTACGCGGGCTACCGTCCGACCCTGCTATCGCCCGGAGTCACCTAGTGCAG | 9580 fluorescence intensity (a.u.)
33 | AGCTTATCGTTATTTTTTTTAAGATTCCACCTTCATATATCGGAGTCACCTAGTGCAG | 8110 fluorescence intensity (a.u.)
34 | AGGGCATCCATTTCTTTCTTTGTTTGATATTGGTGAACTCCGGAGTCACCTAGTGCAG | 8740 fluorescence intensity (a.u.)
35 | TTATTGCTTGATGATTCTCTTCTCGTGTATATATGCTTAACGGAGTCACCTAGTGCAG | 11800 fluorescence intensity (a.u.)
36 | GATTAGTCATTTTTGTCATTGTTTCTCATTATATTTTTCACGGAGTCACCTAGTGCAG | 14100 fluorescence intensity (a.u.)
37 | CCTTCCGCCGCCGCCGTCGCCGTCGCCTGCTCCAGCGCGCCGGAGTCACCTAGTGCAG | 8740 fluorescence intensity (a.u.)
38 | AGCCACTACGCCCCTAGACAGATATAAGCTCGTCTCCTTCCGGAGTCACCTAGTGCAG | 8070 fluorescence intensity (a.u.)
39 | AAAACAGTATACTATTACATTACTACCATTTATTTGTACACGGAGTCACCTAGTGCAG | 9540 fluorescence intensity (a.u.)
40 | CTTCGCCGTCAACCCTGCTCTCCTGCAGCTGGTATTGCAACGGAGTCACCTAGTGCAG | 9360 fluorescence intensity (a.u.)
41 | GGGCAACAACTCTTGAAGCTAGCGGCAACTGTCAAACACACGGAGTCACCTAGTGCAG | 8990 fluorescence intensity (a.u.)
42 | GCGACGGCGTTGGTGGCTTCCCGGTGATGTTTTTATTTTTCGGAGTCACCTAGTGCAG | 13700 fluorescence intensity (a.u.)
43 | GAATTTGAGGGTTGTGTTTTCCTTTCGGGCAAATTTCAGTCGGAGTCACCTAGTGCAG | 9420 fluorescence intensity (a.u.)
44 | GCTAAAAAGTCAACGGTGTCAAACATTTTGAAACGGAGGGCGGAGTCACCTAGTGCAG | 12100 fluorescence intensity (a.u.)
45 | TAATATTAGCTAAATTTGTATCGTCTTATATCCTATTTTTCGGAGTCACCTAGTGCAG | 8160 fluorescence intensity (a.u.)
46 | TGCTGCTTTTGCTGGATCAAGCATCATGAGTGAATAGTCCCGGAGTCACCTAGTGCAG | 9220 fluorescence intensity (a.u.)
47 | CTCCGCCGTCGCGTCCCCGCCGCCGCCGCCCGCCTTCCCCCGGAGTCACCTAGTGCAG | 9960 fluorescence intensity (a.u.)
48 | CTCGTCGGCCTCAACCACCTTCTTGGGATCTGCGCAACACCGGAGTCACCTAGTGCAG | 9800 fluorescence intensity (a.u.)
49 | AATCAGGGAAATTTCTTTTTCGTGCGGTTTGAGTTTCGACCGGAGTCACCTAGTGCAG | 8220 fluorescence intensity (a.u.)
50 | TGTACTGGCTTTTCACTCAGCTGCACTACTACTATCTACACGGAGTCACCTAGTGCAG | 8420 fluorescence intensity (a.u.)
51 | AAGCTTAATTAGGTGGTTTTTGATCTGATCACGCGCCATGCGGAGTCACCTAGTGCAG | 8080 fluorescence intensity (a.u.)
52 | CCCACCTCGCCCCGTCGACGCCCGCGCCACCCACGACGCACGGAGTCACCTAGTGCAG | 8130 fluorescence intensity (a.u.)
53 | TTAATACTTTAAATGTGTGTCCGTATATCCGATGTAATACCGGAGTCACCTAGTGCAG | 8050 fluorescence intensity (a.u.)
54 | GGATGGTTGGGGTAACCTTTTCTTTTACTACAAGGGTAGACGGAGTCACCTAGTGCAG | 9410 fluorescence intensity (a.u.)

4 entries from above in another layout:
Row,Sequence,binding signal
34,AGGGCATCCATTTCTTTCTTTGTTTGATATTGGTGAACTCCGGAGTCACCTAGTGCAG,8740 fluorescence intensity (a.u.)
37,CCTTCCGCCGCCGCCGTCGCCGTCGCCTGCTCCAGCGCGCCGGAGTCACCTAGTGCAG,8740 fluorescence intensity (a.u.)
44,GCTAAAAAGTCAACGGTGTCAAACATTTTGAAACGGAGGGCGGAGTCACCTAGTGCAG,12100 fluorescence intensity (a.u.)
51,AAGCTTAATTAGGTGGTTTTTGATCTGATCACGCGCCATGCGGAGTCACCTAGTGCAG,8080 fluorescence intensity (a.u.)
